From article PMC3280276 (PLoS ONE, 2012)
Results are given in words; binding and its absence hold for the method and conditions named. Tags and fused reporters may be left off the sequences shown.

Target: T1, HiCaM fusion construct displaying the C-terminal 11 amino acids of P1 and P2
T1 sequence: SDDDMGFGLFD
Assay: pull-down; both purified

B1: alpha-sarcin (enzyme, UniProt P00655 28-177)
chain: AVTWTCLNDQKNPKTNKYETKRLLYNQNKAESNSHHAPLSDGKTGSSYPHWFTNGYDGDGKLPKGRTPIKFGKSDCDRPPKHSKDGNGKTDHYLLEFPTFPDGHDYKFDSKKPKENPGPARVIYTYPNKVFCGIIAHTKENQGELKLCSH
  binding: no binding
